{"source": "the supplement of paper PMC8728848", "binders": {"B1": {"name": "Pbx1CASH domain (Cryptococcus neoformans) (protein)", "chain": "MDETKPLWGNPRADGISLACKDSIVERNVVYDATDGAIVLFGSAGSTVKNNHVYARTRVILGGINLVDYEPWDGDYTNVKVHHNHLYALGRYFKVGIVIGPASWSDDTESVVHSASVTDNEFSGGYWGYGIVVASAKNFEVLRNKVIWDGEQGVARFSGVPGS"}}, "assay_in_all_cases": "glycan array binding signal (z-score within array); higher = stronger binding", "conditions_in_all_cases": "glycan notation: IUPAC condensed, linker removed", "key": {"[1]": {"biological_target": "Fuc(a1-3)[Gal(b1-4)]Glc6S", "summary_of_the_method": "(§1)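 Glycan array data were curated from 3228 arrays in the Consortium for Functional Glycomics database and kept only where the protein sequence was available. Glycan names were converted to IUPAC-condensed notation, and columns mapping to the same glycan were averaged. The binding signal is a within-array Z-score, averaged across arrays of the same protein sequence at different concentrations or buffers and across linkers. Negative Z-scores can be read as non-binding.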"}, "[2]": {"biological_target": "Fuc(a1-3)[Gal(b1-4)]GlcNAc", "summary_of_the_method": "as §1"}, "[3]": {"biological_target": "Fuc(a1-3)[Gal(b1-4)]GlcNAc(b1-2)Man", "summary_of_the_method": "as §1"}, "[4]": {"biological_target": "Fuc(a1-3)[Gal(b1-4)]GlcNAc(b1-2)Man(a1-3)[Fuc(a1-3)[Gal(b1-4)]GlcNAc(b1-2)Man(a1-6)]Man(b1-4)GlcNAc(b1-4)GlcNAc", "summary_of_the_method": "as §1"}, "[5]": {"biological_target": "Fuc(a1-3)[Gal(b1-4)]GlcNAc(b1-2)Man(a1-3)[Fuc(a1-3)[Gal(b1-4)]GlcNAc(b1-2)Man(a1-6)]Man(b1-4)GlcNAc(b1-4)[Fuc(a1-6)]GlcNAc", "summary_of_the_method": "as §1"}, "[6]": {"biological_target": "Fuc(a1-3)[Gal(b1-4)]GlcNAc(b1-3)Gal(b1-3)[Fuc(a1-4)]GlcNAc", "summary_of_the_method": "as §1"}, "[7]": {"biological_target": "Fuc(a1-3)[Gal(b1-4)]GlcNAc(b1-3)GalNAc", "summary_of_the_method": "as §1"}, "[8]": {"biological_target": "Fuc(a1-3)[Gal(b1-4)]GlcNAc(b1-4)Gal(b1-4)[Fuc(a1-3)]GlcNAc", "summary_of_the_method": "as §1"}, "[9]": {"biological_target": "Fuc(a1-3)[Gal(b1-4)]GlcNAc(b1-4)Gal(b1-4)[Fuc(a1-3)]GlcNAc(b1-4)Gal(b1-4)[Fuc(a1-3)]GlcNAc", "summary_of_the_method": "as §1"}, "[10]": {"biological_target": "Fuc(a1-3)[Gal(b1-4)]GlcNAc(b1-6)GalNAc", "summary_of_the_method": "as §1"}, "[11]": {"biological_target": "Fuc(a1-3)[Gal(b1-4)]GlcNAc(b1-6)[Gal(b1-3)GlcNAc(b1-3)]Gal(b1-4)Glc", "summary_of_the_method": "as §1"}, "[12]": {"biological_target": "Fuc(a1-3)[Gal(b1-4)]GlcNAc6S", "summary_of_the_method": "as §1"}, "[13]": {"biological_target": "Fuc(a1-3)[Gal3S(b1-4)]Glc", "summary_of_the_method": "as §1"}, "[14]": {"biological_target": "Fuc(a1-3)[Gal3S(b1-4)]GlcNAc", "summary_of_the_method": "as §1"}, "[15]": {"biological_target": "Fuc(a1-3)[Gal3S(b1-4)]GlcNAc6S", "summary_of_the_method": "as §1"}, "[16]": {"biological_target": "Fuc(a1-3)[GalNAc(b1-4)]GlcNAc", "summary_of_the_method": "as §1"}, "[17]": {"biological_target": "Fuc(a1-3)[GalNAc(b1-4)]GlcNAc6S", "summary_of_the_method": "as §1"}, "[18]": {"biological_target": "Fuc(a1-4)GlcNAc", "summary_of_the_method": "as §1"}, "[19]": {"biological_target": "Fuc(b1-3)GlcNAc", "summary_of_the_method": "as §1"}, "[20]": {"biological_target": "Gal(a1-2)Gal", "summary_of_the_method": "as §1"}, "[21]": {"biological_target": "Gal(a1-3)Gal", "summary_of_the_method": "as §1"}, "[22]": {"biological_target": "Gal(a1-3)Gal(b1-3)GlcNAc", "summary_of_the_method": "as §1"}, "[23]": {"biological_target": "Gal(a1-3)Gal(b1-3)GlcNAc(b1-2)Man", "summary_of_the_method": "as §1"}, "[24]": {"biological_target": "Gal(a1-3)Gal(b1-3)GlcNAc(b1-2)Man(a1-3)[Gal(a1-3)Gal(b1-3)GlcNAc(b1-2)Man(a1-6)]Man(b1-4)GlcNAc(b1-4)GlcNAc", "summary_of_the_method": "as §1"}, "[25]": {"biological_target": "Gal(a1-3)Gal(b1-3)GlcNAc(b1-3)GalNAc", "summary_of_the_method": "as §1"}, "[26]": {"biological_target": "Gal(a1-3)Gal(b1-3)GlcNAc(b1-6)GalNAc", "summary_of_the_method": "as §1"}, "[27]": {"biological_target": "Gal(a1-3)Gal(b1-3)[Fuc(a1-4)]GlcNAc(b1-2)Man(a1-3)[Gal(a1-3)Gal(b1-3)[Fuc(a1-4)]GlcNAc(b1-2)Man(a1-6)]Man(b1-4)GlcNAc(b1-4)GlcNAc", "summary_of_the_method": "as §1"}, "[28]": {"biological_target": "Gal(a1-3)Gal(b1-4)Glc", "summary_of_the_method": "as §1"}, "[29]": {"biological_target": "Gal(a1-3)Gal(b1-4)GlcNAc", "summary_of_the_method": "as §1"}, "[30]": {"biological_target": "Gal(a1-3)Gal(b1-4)GlcNAc(b1-2)Man", "summary_of_the_method": "as §1"}, "[31]": {"biological_target": "Gal(a1-3)Gal(b1-4)GlcNAc(b1-2)Man(a1-3)[Gal(a1-3)Gal(b1-4)GlcNAc(b1-2)Man(a1-6)]Man(b1-4)GlcNAc(b1-4)GlcNAc", "summary_of_the_method": "as §1"}, "[32]": {"biological_target": "Gal(a1-3)Gal(b1-4)GlcNAc(b1-3)GalNAc", "summary_of_the_method": "as §1"}, "[33]": {"biological_target": "Gal(a1-3)Gal(b1-4)GlcNAc(b1-6)GalNAc", "summary_of_the_method": "as §1"}, "[34]": {"biological_target": "Gal(a1-3)Gal(b1-4)[Fuc(a1-3)]GlcNAc", "summary_of_the_method": "as §1"}, "[35]": {"biological_target": "Gal(a1-3)Gal(b1-4)[Fuc(a1-3)]GlcNAc(b1-2)Man(a1-3)[Gal(a1-3)Gal(b1-4)[Fuc(a1-3)]GlcNAc(b1-2)Man(a1-6)]Man(b1-4)GlcNAc(b1-4)GlcNAc", "summary_of_the_method": "as §1"}, "[36]": {"biological_target": "Gal(a1-3)GalNAc", "summary_of_the_method": "as §1"}, "[37]": {"biological_target": "Gal(a1-3)[Gal(a1-4)]Gal(b1-4)GlcNAc", "summary_of_the_method": "as §1"}, "[38]": {"biological_target": "Gal(a1-4)Gal(b1-3)GlcNAc(b1-2)Man(a1-3)[Gal(a1-4)Gal(b1-3)GlcNAc(b1-2)Man(a1-6)]Man(b1-4)GlcNAc(b1-4)GlcNAc", "summary_of_the_method": "as §1"}, "[39]": {"biological_target": "Gal(a1-4)Gal(b1-4)Glc", "summary_of_the_method": "as §1"}, "[40]": {"biological_target": "Gal(a1-4)Gal(b1-4)GlcNAc", "summary_of_the_method": "as §1"}, "[41]": {"biological_target": "Gal(a1-4)Gal(b1-4)GlcNAc(b1-2)Man(a1-3)[Gal(a1-4)Gal(b1-4)GlcNAc(b1-2)Man(a1-6)]Man(b1-4)GlcNAc(b1-4)GlcNAc", "summary_of_the_method": "as §1"}, "[42]": {"biological_target": "Gal(a1-4)Gal(b1-4)GlcNAc(b1-3)Gal(b1-4)Glc", "summary_of_the_method": "as §1"}, "[43]": {"biological_target": "Gal(a1-4)GlcNAc", "summary_of_the_method": "as §1"}, "[44]": {"biological_target": "Gal(a1-6)Glc", "summary_of_the_method": "as §1"}, "[45]": {"biological_target": "Gal(b1-2)Gal", "summary_of_the_method": "as §1"}}, "note": "Some of the results follow.", "data": [{"binder": "B1", "values": [{"measurement": "glycan array binding signal (z-score)", "setting": "[1]", "value": -0.736}, {"measurement": "glycan array binding signal (z-score)", "setting": "[2]", "value": -0.439}, {"measurement": "glycan array binding signal (z-score)", "setting": "[3]", "value": 0.21}, {"measurement": "glycan array binding signal (z-score)", "setting": "[4]", "value": 0.368}, {"measurement": "glycan array binding signal (z-score)", "setting": "[5]", "value": -0.469}, {"measurement": "glycan array binding signal (z-score)", "setting": "[6]", "value": 0.08}, {"measurement": "glycan array binding signal (z-score)", "setting": "[7]", "value": -0.322}, {"measurement": "glycan array binding signal (z-score)", "setting": "[8]", "value": 0.019}, {"measurement": "glycan array binding signal (z-score)", "setting": "[9]", "value": -0.078}, {"measurement": "glycan array binding signal (z-score)", "setting": "[10]", "value": -0.382}, {"measurement": "glycan array binding signal (z-score)", "setting": "[11]", "value": -0.167}, {"measurement": "glycan array binding signal (z-score)", "setting": "[12]", "value": 0.01}, {"measurement": "glycan array binding signal (z-score)", "setting": "[13]", "value": -0.572}, {"measurement": "glycan array binding signal (z-score)", "setting": "[14]", "value": 0.094}, {"measurement": "glycan array binding signal (z-score)", "setting": "[15]", "value": -0.581}, {"measurement": "glycan array binding signal (z-score)", "setting": "[16]", "value": 0.246}, {"measurement": "glycan array binding signal (z-score)", "setting": "[17]", "value": -0.281}, {"measurement": "glycan array binding signal (z-score)", "setting": "[18]", "value": -0.287}, {"measurement": "glycan array binding signal (z-score)", "setting": "[19]", "value": -0.312}, {"measurement": "glycan array binding signal (z-score)", "setting": "[20]", "value": -0.625}, {"measurement": "glycan array binding signal (z-score)", "setting": "[21]", "value": -0.099}, {"measurement": "glycan array binding signal (z-score)", "setting": "[22]", "value": -0.681}, {"measurement": "glycan array binding signal (z-score)", "setting": "[23]", "value": -0.969}, {"measurement": "glycan array binding signal (z-score)", "setting": "[24]", "value": 0.152}, {"measurement": "glycan array binding signal (z-score)", "setting": "[25]", "value": -0.095}, {"measurement": "glycan array binding signal (z-score)", "setting": "[26]", "value": 1.73}, {"measurement": "glycan array binding signal (z-score)", "setting": "[27]", "value": -0.261}, {"measurement": "glycan array binding signal (z-score)", "setting": "[28]", "value": 0.025}, {"measurement": "glycan array binding signal (z-score)", "setting": "[29]", "value": 0.003}, {"measurement": "glycan array binding signal (z-score)", "setting": "[30]", "value": -0.504}, {"measurement": "glycan array binding signal (z-score)", "setting": "[31]", "value": 0.689}, {"measurement": "glycan array binding signal (z-score)", "setting": "[32]", "value": 0.792}, {"measurement": "glycan array binding signal (z-score)", "setting": "[33]", "value": -0.006}, {"measurement": "glycan array binding signal (z-score)", "setting": "[34]", "value": -0.631}, {"measurement": "glycan array binding signal (z-score)", "setting": "[35]", "value": -0.569}, {"measurement": "glycan array binding signal (z-score)", "setting": "[36]", "value": -0.612}, {"measurement": "glycan array binding signal (z-score)", "setting": "[37]", "value": -0.786}, {"measurement": "glycan array binding signal (z-score)", "setting": "[38]", "value": 0.262}, {"measurement": "glycan array binding signal (z-score)", "setting": "[39]", "value": -0.13}, {"measurement": "glycan array binding signal (z-score)", "setting": "[40]", "value": -0.37}, {"measurement": "glycan array binding signal (z-score)", "setting": "[41]", "value": -0.011}, {"measurement": "glycan array binding signal (z-score)", "setting": "[42]", "value": -0.211}, {"measurement": "glycan array binding signal (z-score)", "setting": "[43]", "value": -0.656}, {"measurement": "glycan array binding signal (z-score)", "setting": "[44]", "value": -0.17}, {"measurement": "glycan array binding signal (z-score)", "setting": "[45]", "value": -0.215}]}]}
